Assay results from publication PMC11827615.
Construct, isoform or probe ends are uncertain for at least one entry. A negative result means that nothing was seen under these conditions. Weaker means in comparison with the reference protein, sequence or condition of that experiment.

Tested on: His-TaSSRP1 (Triticum aestivum)
Experiment: EMSA
Settings: EMSA: 1 ng biotin probe, 2 ug protein, 20 uL 1x binding buffer, 2.5% glycerol, 2 mM EDTA, 5 mM MgCl2, 50 mM KCl, 0.05% NP-40, poly(dI-dC) (printed '50 n'), recombinant protein, protein details: His (pET-32a, N-terminal vector tags), label: 5' biotin (both oligos listed biotinylated)

## CCCGACTCGATGCGGATTCGGGATCCTCTTGCTGCACGG (double strand) [IME-right]
  binding result: no binding

## CGCATACACATGTGTTCTTCTACCTTCTCCATTCTCTCT (double strand) [IME-left]
  binding result: no binding

## TTTCTCTCTTACTCCAGATATGTCCGTTCTTCTCGTGTC (double strand) [IME-M4]
  binding result: binds more weakly

## TTTCTCTCTTACTCCAGATCGGTCCGTTCTTCTCGTGTC (double strand) [IME-M5]
  binding result: binds more weakly

## TTTCTCTCTTACTCCAGATCTGGCCGTTCTTCTCGTGTC (double strand) [IME-M7]
  binding result: binds more weakly

## TTTCTCTCTTACTCCAGATCTGTCCGTTCTTCTCGTGTC (double strand) [IME]
Unlabeled Cold-IME used as competitor (10-, 50-, 100-fold)
  binding result: binds

## TTTCTCTCTTACTCCAGCTCTGTCCGTTCTTCTCGTGTC (double strand) [IME-M2]
  binding result: binds more weakly
